Data as given in PubChem BioAssay AID1259254 (NCATS, 2017)
The deposit covers about 59,000 reagents; shown is an unselected part. About 1,550 of them (2.6%) were called active. 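G2 share is only a proxy for re-replication; each gene was hit by three separate siRNAs, and active genes were retested.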 Raw values are not corrected between plates. Entries without a mark were called inactive. Reagents against one gene are numbered here. Not given: the amount of reagent.

Purpose: 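Finding genes that stop cells copying their DNA twice in one cycle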 (primary screen)
System: human HCT116 colorectal cancer cells
Knock-down reagent: single siRNA against human genes
Duration: 3 days
Detection: 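Imaged Hoechst DNA stain sorts each cell into a cycle phase by DNA amount; per plate, G2 fraction set to 0% for non-targeting and 100% for GMNN siRNA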
Direction: G2 robust z-score and G2 cells, % of GMNN control: higher = more G2 cells, more excess DNA replication; raw share of cells in G2: higher = larger share of cells with G2 DNA content
Rule for the call: 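An siRNA counts as active if its G2 robust z-score lies at least 5 MADs above the screen median; here such calls match roughly 38% of GMNN control or more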

| target gene | reagent | G2 robust z-score | G2 cells, % of GMNN control | raw share of cells in G2 (%) |
| --- | --- | --- | --- | --- |
| PRAMENP | 1 | -0.396 | 0.178 | 3.4 |
| PRAMENP | 2 | -0.91 | -3.43 | 1.91 |
| PRAMENP | 3 | 2.59 | 21.2 | 9.06 |
| DCTD | 1 | -1.17 | -5.26 | 3.95 |
| DCTD | 2 | -0.881 | -3.23 | 4.02 |
| DCTD | 3 | 0.346 | 5.4 | 5.41 |
| HOXD1 | 1 | 0.00496 | 3 | 6.13 |
| HOXD1 | 2 | -0.319 | 0.723 | 5.96 |
| HOXD1 | 3 | -0.289 | 0.932 | 4.54 |
| MYL12A | 1 | -1.02 | -4.22 | 3.86 |
| MYL12A | 2 | -1.03 | -4.26 | 2.47 |
| MYL12A | 3 | -0.514 | -0.651 | 6.22 |
| LINC02694 | 1 | -1.14 | -5.05 | 1.97 |
| LINC02694 | 2 | 1.19 | 11.4 | 8.03 |
| LINC02694 | 3 | 0.294 | 5.03 | 6.88 |
| NFE4 | 1 | -0.339 | 0.585 | 4.58 |
| NFE4 | 2 | -0.706 | -2 | 3.5 |
| NFE4 | 3 | 1.33 | 12.3 | 6.93 |
| MEMO1 | 1 | -0.0048 | 2.93 | 4.97 |
| MEMO1 | 2 | -0.829 | -2.86 | 3.47 |
| MEMO1 | 3 | 1.36 | 12.6 | 7.21 |
| HLA-K | 1 | -0.256 | 1.17 | 3.12 |
| HLA-K | 2 | 0.924 | 9.47 | 7.45 |
| HLA-K | 3 | 2.05 | 17.4 | 9.59 |
| DRC8 | 1 | 0.436 | 6.04 | 6.12 |
| DRC8 | 2 | 0.0742 | 3.49 | 4.49 |
| DRC8 | 3 | -0.56 | -0.974 | 2.11 |
| LINC00639 | 1 | -0.179 | 1.71 | 4.26 |
| LINC00639 | 2 | 0.841 | 8.89 | 6.48 |
| LINC00639 | 3 | -0.336 | 0.603 | 3.45 |
| EPRS1 | 1 | 0.79 | 8.53 | 8.33 |
| EPRS1 | 2 | 2.24 | 18.8 | 12.4 |
| EPRS1 | 3 | 12 (active) | 87.6 | 34.9 |
| SMPD3 | 1 | 0.272 | 4.88 | 6.37 |
| SMPD3 | 2 | 0.6 | 7.19 | 9.58 |
| SMPD3 | 3 | -0.37 | 0.367 | 4.57 |

Next part (2 carried over from the part before).
| target gene | reagent | G2 robust z-score | G2 cells, % of GMNN control | raw share of cells in G2 (%) |
| --- | --- | --- | --- | --- |
| SMPD3 | 2 | 0.6 | 7.19 | 9.58 |
| SMPD3 | 3 | -0.37 | 0.367 | 4.57 |
| MBNL1 | 1 | -1.85 | -10 | 1.49 |
| MBNL1 | 2 | -0.834 | -2.9 | 4.24 |
| MBNL1 | 3 | -0.253 | 1.18 | 3.59 |
| LCE3C | 1 | -0.481 | -0.418 | 3.08 |
| LCE3C | 2 | -0.251 | 1.2 | 4.67 |
| LCE3C | 3 | -0.952 | -3.73 | 2.7 |
| BTBD17 | 1 | -0.597 | -1.23 | 3.35 |
| BTBD17 | 2 | -0.974 | -3.89 | 1.71 |
| BTBD17 | 3 | -0.813 | -2.75 | 3.45 |
| TTC3 | 1 | -0.835 | -2.91 | 4.37 |
| TTC3 | 2 | -0.039 | 2.69 | 5.36 |
| TTC3 | 3 | 3.21 | 25.5 | 13.8 |
| MEIKIN | 1 | 0.698 | 7.88 | 6.95 |
| MEIKIN | 2 | -0.6 | -1.25 | 2.91 |
| MEIKIN | 3 | 2.75 | 22.3 | 11.8 |
| MRPL58 | 1 | -0.399 | 0.159 | 5.38 |
| MRPL58 | 2 | 2.89 | 23.3 | 12.6 |
| MRPL58 | 3 | -0.724 | -2.12 | 2.69 |
| POLDIP2 | 1 | -0.617 | -1.38 | 3.9 |
| POLDIP2 | 2 | 0.323 | 5.24 | 6.21 |
| POLDIP2 | 3 | 0.131 | 3.89 | 4.66 |
| NODAL | 1 | 0.17 | 4.17 | 6.74 |
| NODAL | 2 | 0.674 | 7.71 | 7.27 |
| NODAL | 3 | 3.14 | 25 | 12.4 |
| TLR7 | 1 | 4.79 | 36.7 | 22.6 |
| TLR7 | 2 | -0.316 | 0.745 | 4.52 |
| TLR7 | 3 | 0.484 | 6.37 | 6.24 |
| TP53I13 | 1 | 4.23 | 32.7 | 16.9 |
| TP53I13 | 2 | 0.164 | 4.12 | 7.59 |
| TP53I13 | 3 | 0.963 | 9.75 | 9.15 |
| PSMA6P2 | 1 | 1.6 | 14.2 | 8.37 |
| PSMA6P2 | 2 | 0.19 | 4.3 | 5.78 |
| PSMA6P2 | 3 | -0.18 | 1.7 | 3.79 |
